Measured values taken from EP2604624A1, “Bowman-Birk protease Inhibitor (BBI) binding peptides, and uses thereof in the separation, detection or purification of BBI” (University College Dublin National University Of Ireland, …, priority 2011, dated 2013).
No constants are given. Whether binding was seen depends on the method and setting. Some binding calls cover weakened binding; strength is not graded here.

B1: anti-BBI single chain antibody fragment (scFv) comprising SEQ ID 14 and 15 (scFv, V domains shown)
VH: EVQLQQSGAELVKPGASVKLSCTGSGFNIKDNNIHWLRQRPEQGLEWIGKIDPANGDTEYGPKLQGKATITSDTSSNTAYLQLNSLTSEDTAVYYCATDLYSKPVWFAYWGQGTLVTVSA
VL: DVLMSQAPLSLPVSLGDQASISCRSSQNIVHSNGNTYLEWYLQKPGQSPKLLIYKVSNRFSGVPDRFSGRGSGTDFTLKISRVEAEDLGVYYCFQGSHVPWTFGGGTKLEIK
B2: anti-BBI single chain Diabody (scDb) comprising SEQ ID 14 and 15 (protein)
VH: EVQLQQSGAELVKPGASVKLSCTGSGFNIKDNNIHWLRQRPEQGLEWIGKIDPANGDTEYGPKLQGKATITSDTSSNTAYLQLNSLTSEDTAVYYCATDLYSKPVWFAYWGQGTLVTVSA
VL: DVLMSQAPLSLPVSLGDQASISCRSSQNIVHSNGNTYLEWYLQKPGQSPKLLIYKVSNRFSGVPDRFSGRGSGTDFTLKISRVEAEDLGVYYCFQGSHVPWTFGGGTKLEIK

Experiments:
[1] = molecular target: T1, soybean Bowman-Birk Inhibitor (BBI), purified (soybean) (UniProt P01055); assay: solid-phase assay, BBI immobilised, streptavidin-HRP detection
T1 sequence (looked up): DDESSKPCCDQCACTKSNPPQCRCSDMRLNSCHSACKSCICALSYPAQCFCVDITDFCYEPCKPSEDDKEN

[2] = molecular target: T1, soybean Bowman-Birk Inhibitor (BBI), purified (soybean); assay: phage ELISA, BBI immobilised, anti-M13 HRP detection
[3] = molecular target: T1, soybean Bowman-Birk Inhibitor (BBI), purified (soybean); assay: SPR (Biacore T100), BBI immobilised on CM5 chip

Binder	binding [2]	binding [3]	also measured
GAMHLPWHMGTLGGGS (C-terminal 1,2-diaminoethane-biotin) [BBI-1: …-1,2-diaminoethane-biotin]			binding [1]: binds
ANYFLPPVLSSSGGGS (peptide, not shown: large carriers) [phage clone displaying the 12-mer peptide of SEQ ID NO: 3]	binds		
B1		binds	
B2		binds	
GAMHLPWHMGTLGGGS (peptide, not shown: large carriers) [phage clone displaying the 12-mer peptide of SEQ ID NO: 1]	binds		
KFLGPLNHRDRHGGGS (peptide, not shown: large carriers) [phage clone displaying the 12-mer peptide of SEQ ID NO: 2]	binds		
